Laboratory results taken from PMC10713436.
Results are given in words; binding and its absence hold for the method and conditions named. Binding seen in cells or lysates may run through a third protein. Some binding calls cover weakened binding; strength is not graded here. Where a sequence is shown, tags or fusion partners need not be part of it.

The chains behind the UniProt entries cited, without tags or fusion partners.
UniProt Q06609: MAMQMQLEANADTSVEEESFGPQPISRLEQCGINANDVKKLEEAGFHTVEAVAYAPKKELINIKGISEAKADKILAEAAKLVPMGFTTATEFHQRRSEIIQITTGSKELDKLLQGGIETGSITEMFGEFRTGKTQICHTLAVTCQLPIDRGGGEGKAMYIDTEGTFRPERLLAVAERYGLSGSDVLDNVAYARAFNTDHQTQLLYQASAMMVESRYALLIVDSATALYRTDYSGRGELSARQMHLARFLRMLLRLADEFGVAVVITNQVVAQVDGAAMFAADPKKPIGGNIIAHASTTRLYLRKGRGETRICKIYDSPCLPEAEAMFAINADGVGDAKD

Molecular target: RAD51 (endogenous, U2OS RAD52-GFP cells) (human (endogenous in U2OS)) (UniProt Q06609)
Test: proximity ligation; U2OS RAD52-GFP cells, 200 nM camptothecin 1 h then 5 h release, CSK pre-extraction, fixed with 2% PFA; primary antibodies anti-RAD51 and anti-GFP, Duolink; controls: single primary antibody, siRAD51, siRAD52

binding: binds
B1: RAD52-GFP (protein, UniProt P43351 1-418)
chain: MSGTEEAILGGRDSHPAAGGGSVLCFGQCQYTAEEYQAIQKALRQRLGPEYISSRMAGGGQKVCYIEGHRVINLANEMFGYNGWAHSITQQNVDFVDLNNGKFYVGVCAFVRVQLKDGSYHEDVGYGVSEGLKSKALSLEKARKEAVTDGLKRALRSFGNALGNCILDKDYLRSLNKLPRQLPLEVDLTKAKRQDLEPSVEEARYNSCRPNMALGHPQLQQVTSPSRPSHAVIPADQDCSSRSLSSSAVESEATHQRKLRQKQLQQQFRERMEKQQVRVSTPSAEKSEAAPPAPPVTHSTPVTVSEPLLEKDFLAGVTQELIKTLEDNSEKWAVTPDAGDGVVKPSSRADPAQTSDTLALNNQMVTQNRTPHSVCHQKPQAKSGSWDLQTYSADQRTTGNWESHRKSQDMKKRKYDPS
